Source: the supplement of paper PMC6445147
Values scatter widely in this assay.

B1: human tRNA-Pro; a variant is named by its letters at N, in order (parent)
chain: GGCTCGTTGGTCTAGNGGTATGATTCTCGCTTAGGGTGCGAGAGGTCCCGGGTTCNNATCCCGGACGAGCCC

Key:
[1] = variants of: B1; experiment: tRNA Pol-III promoter activity, log2 (circRNA frequency / plasmid DNA frequency) (log2 ratio); higher = stronger promoter activity; conditions: HEK293T; construct: no Pol-II promoter ((-)CMV library)
[2] = variants of: B1; experiment: tRNA 3' processing efficiency (processed reads / all reads, maximum-likelihood estimate) (fraction); higher = more efficient 3' processing; conditions: HEK293T; construct: no Pol-II promoter ((-)CMV library)
[3] = variants of: B1; experiment: tRNA 5' processing efficiency (processed reads / all reads, maximum-likelihood estimate) (fraction); higher = more efficient 5' processing; conditions: HEK293T; construct: CMV Pol-II promoter ((+)CMV library, decapped)

Variant	tRNA Pol-III promoter activity (log2) [1]	tRNA 3' processing efficiency [2]	tRNA 5' processing efficiency [3]
GAG G17A T19C	4.98	0.33	–
AAT A14T T53C	3.93	0.75	–
GAG T19A T59C	5.89	0.45	–
GAG T19A T59A	5.03	0.25	–
GAT A14G T19A	3.81	0.5	–
AAG T19A	7.28	0.37	–
AAG T19G	7.46	0.28	–
GAG G17C G18T A58G	5.53	0.17	–
GAG T8C A20T	2.94	0.33	–
GAT A14G A58G	3.55	0.2	–
GAT A14G A58T	2.39	0.5	–
GAT A14C G17A	4.25	0.88	–
CAT A20T	1.64	0.33	–
CAT A20G	3.93	0.25	–
AAT G15A A58T	4.67	0.4	–
CAG G17T	6.15	0.07	–
GAT A14C T19C	6.88	0.2	–
GAT A14G T19A A20C	6.84	0.57	–
GAG T8A A20T	3.43	0.29	–
GAG G17T	0.542	0.24	–
GAG G17C	0.548	0.42	0.33
GAG G17A	-0.334	0.32	–
GAT A58T T59C	3.67	0.2	–

Complete entries as entered above. Order of values: tRNA Pol-III promoter activity (log2) [1] | tRNA 3' processing efficiency [2] | tRNA 5' processing efficiency [3]
GAG G17C is listed with 0.548 | 0.42 | 0.33
AAT A14T T53C is listed with 3.93 | 0.75 | –
GAT A14G T19A A20C is listed with 6.84 | 0.57 | –
GAG T8A A20T is listed with 3.43 | 0.29 | –

Going on with the list.

Variant	tRNA Pol-III promoter activity (log2) [1]	tRNA 3' processing efficiency [2]	tRNA 5' processing efficiency [3]
GAT A58T T59A	4.67	0.67	–
TAT G9A	3.89	0.5	–
TAT G9T	2.05	0.25	–
GAT A14G G17C	5.03	0.24	–
GAT A14G G17T	3.04	0.29	–
GAT A14G G17A	4.21	0.14	–
GAT A14T A20T	1.45	0.25	–
GAT A14C T53G	3.44	0.2	–
CAT	2.44	0.27	–
GAG G18A T19A	3.26	0.43	–
GAG G18A T19C	2.79	0.4	–
GAT G15A T59C	3.71	0.25	–
TAT	2.64	0.35	0.33
GAT G9A A20T	3.53	0.33	–
GAT C55G	-0.666	0.17	–
GAG G17T A58T	3.23	0.13	–
GAG T8G A58C	6.25	0.8	–
TAG T19A	4.65	0.56	–
TAG T19G	4.46	0.26	–
TAG T19C	4.38	0.57	–
AAG T59G	3.66	0.21	–
AAG T59A	3.19	0.33	–
GAG T19G T54A	3.23	0.25	–

Variant	tRNA Pol-III promoter activity (log2) [1]	tRNA 3' processing efficiency [2]	tRNA 5' processing efficiency [3]
AAT A14T A58G	5.34	0.5	–
CAG T53C	5.67	0.65	–
GAT A58G T59C	5.1	0.17	–
TAT A14G G17T T53A	3.3	0.33	–
GAG T8C T59G	4.71	0.38	–
GAG T8C T59C	4.84	0.29	–
AAT G15C	3.67	0.2	–
CAG T19C A20T	7.51	0.33	–
GAT A20G A58G	3.93	0.33	–
GAG T19G A20G	3.4	0.22	–
GAT G15C A20T	4.08	0.73	–
TAG T53A	3.26	0.4	–
GAG T53A A58G	2.81	0.5	–
TAG T8C A20C	4.74	0.14	–
GAG G18T	1.26	0.51	–
GAG G18C	0.227	0.2	–
GAG G18A	1.69	0.54	0.33
GAG T19G A58C	3.03	0.25	–
GAG G17C G18A T19C	6.36	0.4	–
GAT	3.76	0.34	0.18
TAT A14T G17A T19A C55A	3.19	0.33	–
TAG G17T	7.65	0.03	–
CAG T19A	6.25	0.2	–

Variant	tRNA Pol-III promoter activity (log2) [1]	tRNA 3' processing efficiency [2]	tRNA 5' processing efficiency [3]
CAG T19G	4.36	0.25	–
GAG G18T T59A	4.94	0.62	–
GAT G9A A58T	1.51	0.17	–
GAT G9A A58C	2.81	0.33	–
GAT G15A A20T T54G	3.14	0.43	–
CAT A14C	4.73	0.75	–
CAT A14T	5.01	0.37	–
CAT A14G	5.38	0.23	–
GAT A14G A20T	3.03	0.3	–
GAT G15A G18A	2.47	0.45	–
GAT A14C T19C A58G	6.51	0.17	–
AAG T8C	5.2	0.11	–
AAT	3.62	0.23	0.25
GAG T19G	2.16	0.32	–
GAG T19A	3.34	0.45	–
GAG T19C	2.9	0.39	–
GAG T8G A14G	3.43	0.29	–
TAG G15T	3.14	0.15	–
AAG T19C A58C	5.51	0.5	–
GAG T59G	2.43	0.14	–
GAG T59C	3.35	0.29	–
GAG T59A	0.9	0.31	–
GAT A14T G18A A20T	6.03	0.25	–

Variant	tRNA Pol-III promoter activity (log2) [1]	tRNA 3' processing efficiency [2]	tRNA 5' processing efficiency [3]
GAG T8C T19A	4.34	0.55	–
AAT A14C	4.32	0.31	–
AAT A14T	3.73	0.21	–
AAT A14G	3.79	0.25	–
GAG T54A A58T	2.48	0.38	–
GAT G9A T59C	3.8	0.2	–
GAT A14C A20T	6.11	0.17	–
GAG T53G	-0.377	0.58	0.25
GAG T53A	-0.152	0.4	–
CAT G15C	3.38	0.31	–
GAG G35A	4.25	0.2	–
CAT G9A G18C T54A T59A	4.36	0.75	–
GAT G15A G17T	2.71	0.25	–
GAT G15A G17A	2.59	0.14	–
GAG T8G G18A	4.2	0.22	–
GAT G9C G18A	3.41	0.22	–
GAT G15A	2.21	0.32	0.4
GAT G15C	2.44	0.47	–
AAT G9A A58G	6.26	0.07	–
GAT G9A G17T C55G A58C	4.13	0.5	–
AAG T53C	3.41	0.44	–
